From publication PMC7819943, “Rice protein-binding microarrays: a tool to detect cis-acting elements near promoter regions in rice”
Some of the results follow.

The chains behind the UniProt entries cited, without tags or fusion partners.
UniProt Q0JBA9, entry or part of it: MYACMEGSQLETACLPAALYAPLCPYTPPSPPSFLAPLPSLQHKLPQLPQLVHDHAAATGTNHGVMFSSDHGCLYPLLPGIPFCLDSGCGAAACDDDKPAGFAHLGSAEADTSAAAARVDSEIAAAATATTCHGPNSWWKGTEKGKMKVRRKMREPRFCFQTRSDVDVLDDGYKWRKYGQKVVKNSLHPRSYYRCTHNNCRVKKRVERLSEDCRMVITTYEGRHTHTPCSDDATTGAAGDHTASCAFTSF

biological target: OsWRKY34 (Oryza sativa, UniProt Q0JBA9 1-250); assay: protein-binding microarray (RPBM); PBS, 2% BSA, 51.3 ng/ul salmon testes DNA, 50 uM zinc acetate, 200 nM TF, 25 C, 1 h; high values mean tight binding; conditions: protein: recombinant; tags: N-terminal polyhistidine and DsRed monomer fusion (pET32a); label: CyDye5-dUTP incorporated in the synthesized complementary strand; 3' TTTTT single-stranded linker to array surface; dsDNA, one strand shown
In short: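 In PBS with 2% BSA, salmon testes DNA and 50 µM zinc acetate, 200 nM protein was incubated on a custom Agilent array at 25 °C for 1 h and then washed off. The array had been made double-stranded by primer extension with Cy5-dUTP and blocked with 2% BSA. The proteins were transcription factors fused N-terminally to polyhistidine and DsRed, expressed in E. coli BL21-CodonPlus and purified on Ni–NTA. The binding signal is per-feature fluorescence intensity (arbitrary units) from an Axon 4000B scanner.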

Sequence	binding signal
CGCCGTCATCCTTCTTTCCACGCCATCGCCGTCGCCGATTCGGAGTCACCTAGTGCAG	13300 fluorescence intensity (a.u.)
GATGTTTCTGCTGCTGCAGTCATTGGCATCCAGTGCTTTCCGGAGTCACCTAGTGCAG	8380 fluorescence intensity (a.u.)
TATTGGTTTTTGTTTCTGGTGCCACGTCTGCGGCCAAAAACGGAGTCACCTAGTGCAG	9220 fluorescence intensity (a.u.)
TAGGGTTTGGTTGGGTTTTTGGGTGTTTTCAGACGGAGAGCGGAGTCACCTAGTGCAG	12800 fluorescence intensity (a.u.)
AAAAAAAAACTAGCACCATACCGATCACTGCTATGTGTGACGGAGTCACCTAGTGCAG	8950 fluorescence intensity (a.u.)
TCGTCCATGCTCCATACCCCATGTTACCCCATCGCTCATTCGGAGTCACCTAGTGCAG	9610 fluorescence intensity (a.u.)
AATATGCATCGCTTCCATGTTGACATGTTTCTAAGTGTCACGGAGTCACCTAGTGCAG	8320 fluorescence intensity (a.u.)
GTTCTTCGTTAATACGGTGCTTTCATTATTTTGTTTTCCCCGGAGTCACCTAGTGCAG	16600 fluorescence intensity (a.u.)
CATCGACGCACGCGTCGTCGCGTACCATATATCGCACGCGCGGAGTCACCTAGTGCAG	8040 fluorescence intensity (a.u.)
AATCTAACGGGTGGGTCTCATGTATTGATGAGGAAGAAGACGGAGTCACCTAGTGCAG	20800 fluorescence intensity (a.u.)
CCATCGCTAGACCGTTAGTTCCGCTGCTGTTTTTCTTTTCCGGAGTCACCTAGTGCAG	10300 fluorescence intensity (a.u.)
GGTGATTTTTCCGACTCGGCCACGTGAATTTTCCGACTCGCGGAGTCACCTAGTGCAG	8180 fluorescence intensity (a.u.)
TGTACTTTTCCCAATCCCTAGTCATCCCTTTACTAGGCCCCGGAGTCACCTAGTGCAG	9790 fluorescence intensity (a.u.)
CTGTTCGACGTTTTACCACCAGCGCCCACGGGATTTTCACCGGAGTCACCTAGTGCAG	9420 fluorescence intensity (a.u.)
GTCGCTTCGTGTTTTATCTGAGAGTTGTTGCTTTATTATTCGGAGTCACCTAGTGCAG	14200 fluorescence intensity (a.u.)
TGGCTAACTACTCAACATGCACTTGGTTCATTCGCCGTCACGGAGTCACCTAGTGCAG	8680 fluorescence intensity (a.u.)
TACCGGCGATTCTCCTGCGCGCGGCCGCCGCCGCCCCAGCCGGAGTCACCTAGTGCAG	8250 fluorescence intensity (a.u.)
AAAATCTGTCATCGTCGTATCATGCATGTCGAATGTTTTGCGGAGTCACCTAGTGCAG	8380 fluorescence intensity (a.u.)
GTGTCTGCGACAACCGGCTGTGGGGAGGTTAGGAATTTTCCGGAGTCACCTAGTGCAG	9280 fluorescence intensity (a.u.)
TTGATAGGTGAGGGACCCGTTATGTCTGGTTTTCCAATCGCGGAGTCACCTAGTGCAG	8650 fluorescence intensity (a.u.)
ACGATAAACTCACCAAACCCGTCCCACCGCAGCCCACCGACGGAGTCACCTAGTGCAG	8190 fluorescence intensity (a.u.)
AATGTGTATTGATATATCCGATGTGACAGCTAAATTTAAACGGAGTCACCTAGTGCAG	8740 fluorescence intensity (a.u.)
AGTACTGGGAGGGAGGGAGTCTGTCTCAACCTGCATTTGCCGGAGTCACCTAGTGCAG	9500 fluorescence intensity (a.u.)
CTCTGCCAAACAAACCGCTAGACTTCATCCTCGCTCTCTCCGGAGTCACCTAGTGCAG	10900 fluorescence intensity (a.u.)
CATACCTCATCAGATCATGCCCGTCATCTCCGTCATCTCCCGGAGTCACCTAGTGCAG	9310 fluorescence intensity (a.u.)
TTTTTGTTTTTTAATTGTGGAGTTTGGGAGGAGGAGGGGACGGAGTCACCTAGTGCAG	9870 fluorescence intensity (a.u.)
TTTCCTGCTTTGTTTGATCATATCTGTGTGTTTTGTCCTACGGAGTCACCTAGTGCAG	14100 fluorescence intensity (a.u.)

Sequence	binding signal
AATCCCAGCTCTATGTGTCCTCGAGCTTCTTGTCCTAGACCGGAGTCACCTAGTGCAG	9720 fluorescence intensity (a.u.)
GCCTTAGGAATCACCATTTTGTTACTACATTTTAACTGTTCGGAGTCACCTAGTGCAG	9670 fluorescence intensity (a.u.)
ATAGAGTTCCTGTTTGTATTCTCGAAAGAGTTCCTGTTTGCGGAGTCACCTAGTGCAG	9960 fluorescence intensity (a.u.)
TCTATGGGTTCTGTTCCGTTCTGTTCTGGCGCTCCTCTCTCGGAGTCACCTAGTGCAG	13700 fluorescence intensity (a.u.)
GGGCGGAGAGTTGGGGTTTGGGTTGGTGGCGGTGGGCCGGCGGAGTCACCTAGTGCAG	14800 fluorescence intensity (a.u.)
CTCTTCCATTGCAAAATGCACGTTAAGACCATGTTTTAAACGGAGTCACCTAGTGCAG	8370 fluorescence intensity (a.u.)
TATTGCACCGGTTTCTGGATTCTGGTTGAACGACGAAAATCGGAGTCACCTAGTGCAG	8070 fluorescence intensity (a.u.)
TATGTTGTTTAGGGGCGGATCTATAGTATATGCGTCGGTGCGGAGTCACCTAGTGCAG	8580 fluorescence intensity (a.u.)
GAGACTTTGGGGATCAAGATGACACAACCCTACATGTTTACGGAGTCACCTAGTGCAG	8040 fluorescence intensity (a.u.)
GGAGGGTGGGGTAGGAGAGGATGCGGCGGGCGCCATGGCTCGGAGTCACCTAGTGCAG	8590 fluorescence intensity (a.u.)
AATCTTGTCTTTAGAGTGTATGCATTTGGTTTGTATAGGTCGGAGTCACCTAGTGCAG	8350 fluorescence intensity (a.u.)
GCACCAGAGTGCTCCGAGGCTTTTCTTACTGGCATGTTTGCGGAGTCACCTAGTGCAG	8590 fluorescence intensity (a.u.)
CCGCCGCCACCACCACCGCCACCGCCGCCGCCGAGCGATGCGGAGTCACCTAGTGCAG	9880 fluorescence intensity (a.u.)
TTTCTGTCCATTATGTTTAAACCTCAATATCAGACATCTTCGGAGTCACCTAGTGCAG	8670 fluorescence intensity (a.u.)
GGCCTTGTGTTTTCTGTACATCGCTGTCGTCTCCTCAGTCCGGAGTCACCTAGTGCAG	15200 fluorescence intensity (a.u.)
CTTTGCATTTCCGCCTCGTCTTTTCCGCCTCGTCTTTTCGCGGAGTCACCTAGTGCAG	9920 fluorescence intensity (a.u.)
AATCTACCATTTTTCACGAAATTCCATCGGTTCTATGAACCGGAGTCACCTAGTGCAG	8820 fluorescence intensity (a.u.)
ACATGTTTTCCAGTTTTCCTGTTGCATACAAATGCATCTGCGGAGTCACCTAGTGCAG	8440 fluorescence intensity (a.u.)
CTTTCGGTTGGGCTATTTGTATCTGCGGTGGCCGAAATATCGGAGTCACCTAGTGCAG	9350 fluorescence intensity (a.u.)
ATATATATATATATATATACCTGTCGATGGTAAAATATGACGGAGTCACCTAGTGCAG	9860 fluorescence intensity (a.u.)
AAGTCTCAACGCACTCCGGTCAACGCTACGGTCAAACAGACGGAGTCACCTAGTGCAG	8630 fluorescence intensity (a.u.)
CTGCTCTGCTCCTTGACTTCTTCTTGCCACACAGCAGTACCGGAGTCACCTAGTGCAG	9060 fluorescence intensity (a.u.)
TTCTGTTGACTTTTCAGATAATATTTAATTGTTCTTCTTACGGAGTCACCTAGTGCAG	16000 fluorescence intensity (a.u.)
GCCCGACTCCATTCATGTCAATCTCAGCATATCTTTTTTTCGGAGTCACCTAGTGCAG	13300 fluorescence intensity (a.u.)
TGCAAGGCTTCTTGGATTTTAGTGTGGCTTCTCTGCTCTCCGGAGTCACCTAGTGCAG	8860 fluorescence intensity (a.u.)
AACTTCTTGCATGTGCCTTTTTTATCATCTGCATATATTTCGGAGTCACCTAGTGCAG	10300 fluorescence intensity (a.u.)
ATTTTCTTGCACACTGAACTAGTGAACTTTTTTCCCTGTCCGGAGTCACCTAGTGCAG	9450 fluorescence intensity (a.u.)

Some of the entries so far, with bars between the fields.
Sequence | binding signal
AATCTTGTCTTTAGAGTGTATGCATTTGGTTTGTATAGGTCGGAGTCACCTAGTGCAG | 8350 fluorescence intensity (a.u.)
TTTCTGTCCATTATGTTTAAACCTCAATATCAGACATCTTCGGAGTCACCTAGTGCAG | 8670 fluorescence intensity (a.u.)
GGCCTTGTGTTTTCTGTACATCGCTGTCGTCTCCTCAGTCCGGAGTCACCTAGTGCAG | 15200 fluorescence intensity (a.u.)
